Data from paper PMC12147355 (Molecular Medicine, 2025).
Ends that are not written are not given here.

Experiment: peptide made by a vendor
Settings: whole synthesis, HPLC analysis

Row | Substance | purity (crude or final not stated) [%]
1 | KFAKFAKKFAKFAKKFAKFAK-YTRDLVYKDPARPKIQKTC(Acm)TF - QC(Acm)HC(Acm)GKC(Acm)DSDST DC(Acm)T -CONH2 | 95.3
2 | KFAKFAKKFAKFAKKFAKFAK-YTRDLVYKDPARPKIQKTCTF-QCHCGKCDSDSTDCT-CONH2 | 93.8
3 | KFAKFAKKFAKFAKKFAKFAK-YTRDLVYKDPARPKIQKTSTF-CONH2 | 98.9
4 | KFAKFAKKFAKFAKKFAKFAK-QAHAGKADSDSTDAT-CONH2 | 95.6
5 | KFAKFAKKFAKFAKKFAKFAK-NH2 | 98.1
6 | KFAKFAKKFAKFAKKFAKFAK-QSHSGKSDSDSTDST-CONH2 | 95.7
7 | KFAKFAKKFAKFAKKFAKFAK-YTRDLVYKDPARPKIQKTCTF-CONH2 | 95.7
8 | KFAKFAKKFAKFAKKFAKFAK-YTRDLVYKDPARPKIQKTATF-CONH2 | 98.9
9 | KFAKFAKKFAKFAKKFAKFAK-YTRDLVYKDPARPKIQKTSTF- QSHSGKSDSDSTDST-CONH2 | 96.5
10 | KFAKFAKKFAKFAKKFAKFAK-QCHCGKCDSDSTDCT-CONH2 | 95.5
11 | KFAKFAKKFAKFAKKFAKFAK-YTRDLVYKDPARPKIQKTC(Acm)TF-CONH2 | 98.5
12 | KFAKFAKKFAKFAKKFAKFAK-QC(Acm)HC(Acm)GKC(Acm)DSDSTDC(Acm)T-CONH2 | 97.8
13 | KFAKFAKKFAKFAKKFAKFAK-YTRDLVYKDPARPKIQKTATF - QAHAGKADSDSTDAT-CONH2 | 97.7
